Experimental data taken from patent US20040039014A1, “Methods and compounds for treating depression and other disorders” (NPS Pharmaceuticals, Inc., priority 1998, published 2004).

Biological target: T1, NMDA receptor
T1 construct: rat cortex membranes
Assay: [3H]MK-801 binding assay (rat cortex synaptic plasma membranes)
Conditions: Table II
Method: Synaptic plasma membranes (SPMs) from rat cortex were prepared as follows. Isolated cerebral cortices from male and female rats were purchased from Pel-Freez (Rogers, Ariz.) in bulk, and stored at −80° C. The cortices from 25 rats were thawed and pooled. […] The resulting homogenates were centrifuged for 10 min at 1,000×g in a T865 rotor, UltraPro80 Sorvall Centrifuge. The supernatant was removed and subsequently centrifuged at 30,000×g for 30 min. […] Membranes were washed by re-suspension in 500 ml of 5 mM K-EDTA (pH 7.0), incubated at 32° C. for 30 min with stirring, and centrifuged at 100,000×g for 30 min. The final pellet was resuspended in 60 ml of […] K-EDTA (pH 7.0) and stored in aliquots at −80° C. The extensive washing procedure utilized in this assay was designed to minimize the concentrations of glutamate and glycine (co-agonists at the NMDA receptor-ionophore complex) present in the membrane preparation.
On the day of assay, aliquots of SPM were thawed and resuspended in 75 vols of 5 mM K-EDTA, pH 7.0. SPM were centrifuged at 100,000×g for 30 min at 4° C.
The SPM pellet was resuspended in assay buffer (30 mM EPPS, 1 mM K-EDTA, pH 7.0) by polytron. […] Radioactivity on the filters was measured using Fisherbrand Scinti-Safe scintillation cocktail. Samples were shaken for 45-60 min on a shaker platform to solubilize the radioactivity. […]

`CNCCC(Oc1ccc(C(F)(F)F)cc1)c1ccccc1` (stereo not shown) [Fluoxetine, reference compound] was tested, and the “[3H]MK-801 data” value was “No activity at 10 μM”.
